The source of these data is publication PMC9251887.

In assay [1] the target is Venus^N173-XopL (Xanthomonas campestris pv. vesicatoria). As to the kind of experiment: split reporter; bimolecular fluorescence complementation of Venus^N173 and Venus^C155 fusions, transient expression in N. benthamiana leaf epidermal cells, confocal microscopy.
Assay [2] addresses GFP-XopL (Xanthomonas campestris pv. vesicatoria). As to the kind of experiment: co-IP; transient expression in N. benthamiana leaves, 48 h; total proteins immunoprecipitated with GFP-Trap beads; immunoblot. On the technique in general: A western blot detects proteins with antibodies after separation by electrophoresis.
Assay [3] concerns the target MBP-XopL (Xanthomonas campestris pv. vesicatoria). Put plainly: pull-down; in vitro co-IP with E. coli produced recombinant MBP-XopL and GST-AtSH3P2; who was held is not told.

Results are given in words; binding and its absence hold for the method and conditions named. In cells and extracts the contact can be indirect. A result given as binding can be weak or reduced; the word gives no strength. For part of these data: Tags and fused reporters may be left off the sequences shown.

B1: AtSH3P2-Venus^C155 (protein, UniProt Q8VWF1 1-368)
chain: MDAIRKQASRLREQVARQQQAVFKQFGGGGYGSGLADEAELNQHQKLEKLYISTRAAKHYQRDIVRGVEGYIVTGSKQVEIGTKLSEDSRKYGSENTCTNGNVLTRAALNYGRARAQMEKERGNMLKALGTQVAEPLRAMVLGAPLEDARHLAQRYDRMRQEAEAQATEVARRQAKARESQGNPDILMKLESAEAKLHDLKSNMTILGKEAASALASVEDQQQKLTLERLLSMVESERAYHQRVLQILDQLEGEMVSERQRIEAPSTPSSADSMPPPPSYEEANGVFASQMHDTSTDSMGYFLGEVLFPYHGVTDVELSLSTGEYVVVRKVTGSGWAEGECKGKAGWFPYGYIERRERVLASKVSEVF
Consider B1, for which the binding result in assay [1] was “binds”.

B2: AtSH3P2-HA (protein, UniProt Q8VWF1 1-368)
chain: MDAIRKQASRLREQVARQQQAVFKQFGGGGYGSGLADEAELNQHQKLEKLYISTRAAKHYQRDIVRGVEGYIVTGSKQVEIGTKLSEDSRKYGSENTCTNGNVLTRAALNYGRARAQMEKERGNMLKALGTQVAEPLRAMVLGAPLEDARHLAQRYDRMRQEAEAQATEVARRQAKARESQGNPDILMKLESAEAKLHDLKSNMTILGKEAASALASVEDQQQKLTLERLLSMVESERAYHQRVLQILDQLEGEMVSERQRIEAPSTPSSADSMPPPPSYEEANGVFASQMHDTSTDSMGYFLGEVLFPYHGVTDVELSLSTGEYVVVRKVTGSGWAEGECKGKAGWFPYGYIERRERVLASKVSEVF
Consider B2, for which the binding entry in assay [2] is given as “binds”.

B3: GST-AtSH3P2 (protein, UniProt Q8VWF1 1-368)
chain: MDAIRKQASRLREQVARQQQAVFKQFGGGGYGSGLADEAELNQHQKLEKLYISTRAAKHYQRDIVRGVEGYIVTGSKQVEIGTKLSEDSRKYGSENTCTNGNVLTRAALNYGRARAQMEKERGNMLKALGTQVAEPLRAMVLGAPLEDARHLAQRYDRMRQEAEAQATEVARRQAKARESQGNPDILMKLESAEAKLHDLKSNMTILGKEAASALASVEDQQQKLTLERLLSMVESERAYHQRVLQILDQLEGEMVSERQRIEAPSTPSSADSMPPPPSYEEANGVFASQMHDTSTDSMGYFLGEVLFPYHGVTDVELSLSTGEYVVVRKVTGSGWAEGECKGKAGWFPYGYIERRERVLASKVSEVF
With B3, the binding entry in assay [3] was “binds”.
